Measurements reported in PubChem BioAssay AID504786 (Drosophila RNAi Screening Center, 2011)
The deposit covers about 21,000 reagents; shown is a random part of those that have a named target and a result. 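Primary screen; positive scores mean lost reporter signal, so the sign may be inverted from the usual convention.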 The numbers tell different reagents against one gene apart. Further read-outs or replicates are left out here.

Purpose: 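Knock-downs reducing HIF reporter induction by the iron chelator DFO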 (primary screen)
System: Drosophila S2 cells with a stable HIF luciferase reporter
Reagents: long dsRNA against Drosophila genes, about 0.2 µg dsRNA per well of a 384-well plate
Timing: three days of knock-down, then 20 h of DFO before reading
Challenge: desferrioxamine (DFO) at 100 µM, an iron chelator that mimics hypoxia, for 20 h
Measurement: 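HIF reporter luminescence in cells given 100 µM DFO for 20 h, using the mouse ldh-a hypoxia-response element, scored as per-plate z-scores; higher means greater loss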
Direction: z-score: higher = stronger loss of HIF reporter signal

CG31199 — z-score, replicate 1: -0.2
CG4497 — z-score, replicate 1: -0.3
CR42745 (retired record) — z-score, replicate 1: -0.3
superdeath — z-score, replicate 1: 0
CG17472 — z-score, replicate 1: -0.2
CG15594 — z-score, replicate 1: -0.3
CLIP-190 — z-score, replicate 1: -0.3
Cog2 — z-score, replicate 1: -0.7
Fie — z-score, replicate 1: 0
Rcd7 — z-score, replicate 1: -0.3
CG17121 — z-score, replicate 1: -0.4
Or83a — z-score, replicate 1: -0.2
mTor — z-score, replicate 1: 2.8

The list goes on; the last 3 above are carried over.
CG17121 — z-score, replicate 1: -0.4
Or83a — z-score, replicate 1: -0.2
mTor — z-score, replicate 1: 2.8
CG34056 — z-score, replicate 1: -0.1
l(3)neo38 #1 — z-score, replicate 1: -0.3
l(3)neo38 #2 — z-score, replicate 1: -0.3
Polr2B — z-score, replicate 1: 3
TotC — z-score, replicate 1: -0.2
KLHL18 — z-score, replicate 1: -0.3
Chro — z-score, replicate 1: 0.6
Mettl3 — z-score, replicate 1: -0.2
CG13807 — z-score, replicate 1: -0.3
PGRP-SC1a — z-score, replicate 1: -0.3
CG11696 — z-score, replicate 1: 0.1
CG9752 — z-score, replicate 1: -0.3
CG6685 — z-score, replicate 1: -0.3
CG11456 — z-score, replicate 1: -0.3
